According to article PMC9527190:
These are yes or no findings as the source states them, for the method shown. In cells and extracts the contact can be indirect. Some entries that bind do so weakly or less than the wild type.

By UniProt entry, the sequences of proteins in these tests, tags left out. Residues count along the entry.
UniProt Q16665: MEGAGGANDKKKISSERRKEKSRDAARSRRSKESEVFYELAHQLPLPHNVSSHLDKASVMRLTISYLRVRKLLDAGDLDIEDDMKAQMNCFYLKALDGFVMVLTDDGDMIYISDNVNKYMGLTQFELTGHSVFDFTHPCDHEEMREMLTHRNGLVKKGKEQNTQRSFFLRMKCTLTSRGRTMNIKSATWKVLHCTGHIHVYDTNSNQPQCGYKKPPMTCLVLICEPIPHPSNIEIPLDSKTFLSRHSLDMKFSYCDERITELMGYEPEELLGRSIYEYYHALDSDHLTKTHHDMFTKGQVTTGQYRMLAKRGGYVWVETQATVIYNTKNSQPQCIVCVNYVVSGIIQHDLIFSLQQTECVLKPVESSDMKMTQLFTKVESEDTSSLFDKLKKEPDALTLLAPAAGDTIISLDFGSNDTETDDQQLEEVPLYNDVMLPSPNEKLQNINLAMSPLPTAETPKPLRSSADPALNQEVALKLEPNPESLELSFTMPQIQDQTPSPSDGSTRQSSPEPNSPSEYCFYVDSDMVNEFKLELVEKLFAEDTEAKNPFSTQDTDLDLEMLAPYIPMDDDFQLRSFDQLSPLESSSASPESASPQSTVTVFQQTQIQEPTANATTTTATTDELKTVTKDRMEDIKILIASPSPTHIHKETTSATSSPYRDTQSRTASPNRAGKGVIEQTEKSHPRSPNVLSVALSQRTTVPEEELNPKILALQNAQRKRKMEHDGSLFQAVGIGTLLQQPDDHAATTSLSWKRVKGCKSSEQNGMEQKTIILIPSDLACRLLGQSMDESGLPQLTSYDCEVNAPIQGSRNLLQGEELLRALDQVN
UniProt P46531, residues 1754-2555: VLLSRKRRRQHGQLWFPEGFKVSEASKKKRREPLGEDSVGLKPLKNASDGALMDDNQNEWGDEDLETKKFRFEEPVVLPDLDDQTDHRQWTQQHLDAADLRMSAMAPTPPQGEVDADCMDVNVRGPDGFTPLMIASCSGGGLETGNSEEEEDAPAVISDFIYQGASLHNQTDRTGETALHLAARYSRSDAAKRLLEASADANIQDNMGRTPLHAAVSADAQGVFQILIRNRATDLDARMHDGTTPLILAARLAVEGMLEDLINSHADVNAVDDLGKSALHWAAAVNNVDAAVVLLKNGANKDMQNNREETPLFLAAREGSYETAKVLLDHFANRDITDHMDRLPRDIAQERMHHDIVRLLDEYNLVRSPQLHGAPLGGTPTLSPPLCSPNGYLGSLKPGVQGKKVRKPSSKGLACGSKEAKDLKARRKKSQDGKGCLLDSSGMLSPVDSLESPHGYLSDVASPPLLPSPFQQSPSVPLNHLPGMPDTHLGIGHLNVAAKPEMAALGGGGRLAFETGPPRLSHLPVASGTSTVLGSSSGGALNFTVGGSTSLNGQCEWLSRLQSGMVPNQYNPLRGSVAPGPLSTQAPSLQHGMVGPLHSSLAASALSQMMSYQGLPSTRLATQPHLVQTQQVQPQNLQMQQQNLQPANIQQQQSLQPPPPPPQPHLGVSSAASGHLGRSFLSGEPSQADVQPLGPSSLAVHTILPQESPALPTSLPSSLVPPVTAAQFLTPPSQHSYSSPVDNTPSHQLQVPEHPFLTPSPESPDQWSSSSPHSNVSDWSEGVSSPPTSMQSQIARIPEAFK

Target: hypoxia-inducible factor-1α (human (endogenous in U251-MG)) (UniProt Q16665)
Test: co-IP; lysates of high-density cultured U251-MG cells (1% NP-40, 20 mM Tris-HCl pH 7.5, 137 mM NaCl, 2 mM EDTA) precipitated with anti-HIF-1α or normal IgG and protein G agarose, then immunoblot; Fig. 5B untreated cells, Fig. 5D siControl 48 h and MG132 2 h

Notch1 intracellular domain (from UniProt P46531 1754-2555) (domain or fragment)
binding: binds
